Data published in PMC6053352.
Results are given in words; binding and its absence hold for the method and conditions named. In cells and extracts the contact can be indirect. Some results given as binding are weak or reduced against the parent protein; the word gives no strength.

Chains of the proteins cited; added tags and fusions are not shown. Residues count along the entry.
UniProt P05622, residues 32-1098: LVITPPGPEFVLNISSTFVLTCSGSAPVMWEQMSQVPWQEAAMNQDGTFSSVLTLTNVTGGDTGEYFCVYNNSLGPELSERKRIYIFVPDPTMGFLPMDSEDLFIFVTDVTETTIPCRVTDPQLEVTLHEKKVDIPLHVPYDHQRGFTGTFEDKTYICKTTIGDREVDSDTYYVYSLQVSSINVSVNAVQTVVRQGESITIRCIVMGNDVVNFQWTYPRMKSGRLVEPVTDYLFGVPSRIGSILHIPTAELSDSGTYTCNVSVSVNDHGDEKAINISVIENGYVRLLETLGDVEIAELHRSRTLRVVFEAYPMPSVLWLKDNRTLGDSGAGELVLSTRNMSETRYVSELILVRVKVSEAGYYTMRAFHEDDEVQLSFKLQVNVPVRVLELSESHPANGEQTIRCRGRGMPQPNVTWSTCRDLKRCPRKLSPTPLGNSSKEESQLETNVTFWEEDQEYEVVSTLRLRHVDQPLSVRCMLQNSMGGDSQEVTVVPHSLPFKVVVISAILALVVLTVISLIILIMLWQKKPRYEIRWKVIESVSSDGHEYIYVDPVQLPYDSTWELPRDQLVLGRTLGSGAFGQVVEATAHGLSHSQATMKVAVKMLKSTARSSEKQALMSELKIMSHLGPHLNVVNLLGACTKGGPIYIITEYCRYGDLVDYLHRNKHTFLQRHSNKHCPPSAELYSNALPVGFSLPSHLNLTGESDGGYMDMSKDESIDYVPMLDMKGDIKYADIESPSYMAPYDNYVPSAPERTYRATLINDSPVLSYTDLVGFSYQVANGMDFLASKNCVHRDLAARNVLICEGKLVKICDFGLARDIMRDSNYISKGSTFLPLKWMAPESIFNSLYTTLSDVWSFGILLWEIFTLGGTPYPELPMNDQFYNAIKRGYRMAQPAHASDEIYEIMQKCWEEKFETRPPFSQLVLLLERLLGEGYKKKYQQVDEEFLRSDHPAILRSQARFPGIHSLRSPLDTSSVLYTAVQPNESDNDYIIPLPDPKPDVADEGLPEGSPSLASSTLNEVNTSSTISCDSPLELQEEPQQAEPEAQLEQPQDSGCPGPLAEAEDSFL

Target: T1, CD146 (mouse (endogenous in 10T1/2)) (UniProt Q8R2Y2)
T1 sequence: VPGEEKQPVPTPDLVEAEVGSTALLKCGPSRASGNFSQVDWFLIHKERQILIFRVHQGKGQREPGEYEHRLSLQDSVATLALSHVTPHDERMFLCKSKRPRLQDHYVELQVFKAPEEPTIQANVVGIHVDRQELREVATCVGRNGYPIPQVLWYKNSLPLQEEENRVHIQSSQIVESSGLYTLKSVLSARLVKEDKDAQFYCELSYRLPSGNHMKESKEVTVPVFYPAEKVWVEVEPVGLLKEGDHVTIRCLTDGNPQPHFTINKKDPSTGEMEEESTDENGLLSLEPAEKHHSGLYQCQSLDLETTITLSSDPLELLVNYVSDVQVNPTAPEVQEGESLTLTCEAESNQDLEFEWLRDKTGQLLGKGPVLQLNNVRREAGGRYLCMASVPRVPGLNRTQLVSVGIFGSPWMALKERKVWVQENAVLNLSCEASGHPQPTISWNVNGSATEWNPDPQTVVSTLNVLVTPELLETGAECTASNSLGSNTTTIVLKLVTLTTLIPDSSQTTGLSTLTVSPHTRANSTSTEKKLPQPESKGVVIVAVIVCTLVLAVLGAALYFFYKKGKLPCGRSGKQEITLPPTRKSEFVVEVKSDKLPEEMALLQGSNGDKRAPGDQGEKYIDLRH
Assay: co-IP; endogenous proteins in 10T1/2 cells, with PDGF-B (20 ng/mL); also after Cd146-siRNA, Cd146-siRNA plus a Cd146-expressing plasmid, or in the presence of mIgG or AA98 (50 μg/mL); which protein was precipitated is not told

binding	Substance
binds	PDGFRβ (from UniProt P05622 32-1098) (receptor)
binds	phosphorylated PDGFRβ (from UniProt P05622 32-1098) (receptor)
